Laboratory results reported in article PMC9124971.
No constants are given. Whether binding was seen depends on the method and setting. Binding seen in cells or lysates may run through a third protein. These calls come from enrichment with a bait or labelling near it, and not all partners need be listed.

Chains of the proteins cited; added tags and fusions are not shown.
UniProt P48432: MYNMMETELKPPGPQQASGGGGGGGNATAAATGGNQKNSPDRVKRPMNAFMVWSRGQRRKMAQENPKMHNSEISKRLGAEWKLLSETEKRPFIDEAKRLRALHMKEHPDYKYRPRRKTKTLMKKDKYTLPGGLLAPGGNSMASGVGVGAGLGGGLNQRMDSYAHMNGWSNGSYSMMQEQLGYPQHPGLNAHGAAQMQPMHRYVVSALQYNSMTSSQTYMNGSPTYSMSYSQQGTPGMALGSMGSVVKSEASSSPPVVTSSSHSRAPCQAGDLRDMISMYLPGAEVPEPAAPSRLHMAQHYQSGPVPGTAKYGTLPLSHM
UniProt P58463: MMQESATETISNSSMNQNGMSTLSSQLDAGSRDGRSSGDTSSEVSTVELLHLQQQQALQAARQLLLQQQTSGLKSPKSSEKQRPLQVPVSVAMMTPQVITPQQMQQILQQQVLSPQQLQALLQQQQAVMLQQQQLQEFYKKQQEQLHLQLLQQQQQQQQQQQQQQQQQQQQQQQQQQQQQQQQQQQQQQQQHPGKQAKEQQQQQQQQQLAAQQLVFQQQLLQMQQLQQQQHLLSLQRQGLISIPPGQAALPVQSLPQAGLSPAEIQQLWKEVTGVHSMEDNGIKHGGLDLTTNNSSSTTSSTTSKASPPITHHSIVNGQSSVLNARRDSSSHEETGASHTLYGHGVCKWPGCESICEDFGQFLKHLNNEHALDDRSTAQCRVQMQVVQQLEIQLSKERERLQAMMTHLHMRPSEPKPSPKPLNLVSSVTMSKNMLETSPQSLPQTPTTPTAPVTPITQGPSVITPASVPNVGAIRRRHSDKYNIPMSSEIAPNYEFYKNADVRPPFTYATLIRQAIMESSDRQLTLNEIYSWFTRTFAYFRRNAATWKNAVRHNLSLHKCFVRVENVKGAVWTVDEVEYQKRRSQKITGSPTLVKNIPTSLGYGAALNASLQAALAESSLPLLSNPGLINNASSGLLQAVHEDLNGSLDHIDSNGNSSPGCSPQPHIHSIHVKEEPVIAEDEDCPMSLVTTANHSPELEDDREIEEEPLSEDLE
UniProt Q6PDQ2: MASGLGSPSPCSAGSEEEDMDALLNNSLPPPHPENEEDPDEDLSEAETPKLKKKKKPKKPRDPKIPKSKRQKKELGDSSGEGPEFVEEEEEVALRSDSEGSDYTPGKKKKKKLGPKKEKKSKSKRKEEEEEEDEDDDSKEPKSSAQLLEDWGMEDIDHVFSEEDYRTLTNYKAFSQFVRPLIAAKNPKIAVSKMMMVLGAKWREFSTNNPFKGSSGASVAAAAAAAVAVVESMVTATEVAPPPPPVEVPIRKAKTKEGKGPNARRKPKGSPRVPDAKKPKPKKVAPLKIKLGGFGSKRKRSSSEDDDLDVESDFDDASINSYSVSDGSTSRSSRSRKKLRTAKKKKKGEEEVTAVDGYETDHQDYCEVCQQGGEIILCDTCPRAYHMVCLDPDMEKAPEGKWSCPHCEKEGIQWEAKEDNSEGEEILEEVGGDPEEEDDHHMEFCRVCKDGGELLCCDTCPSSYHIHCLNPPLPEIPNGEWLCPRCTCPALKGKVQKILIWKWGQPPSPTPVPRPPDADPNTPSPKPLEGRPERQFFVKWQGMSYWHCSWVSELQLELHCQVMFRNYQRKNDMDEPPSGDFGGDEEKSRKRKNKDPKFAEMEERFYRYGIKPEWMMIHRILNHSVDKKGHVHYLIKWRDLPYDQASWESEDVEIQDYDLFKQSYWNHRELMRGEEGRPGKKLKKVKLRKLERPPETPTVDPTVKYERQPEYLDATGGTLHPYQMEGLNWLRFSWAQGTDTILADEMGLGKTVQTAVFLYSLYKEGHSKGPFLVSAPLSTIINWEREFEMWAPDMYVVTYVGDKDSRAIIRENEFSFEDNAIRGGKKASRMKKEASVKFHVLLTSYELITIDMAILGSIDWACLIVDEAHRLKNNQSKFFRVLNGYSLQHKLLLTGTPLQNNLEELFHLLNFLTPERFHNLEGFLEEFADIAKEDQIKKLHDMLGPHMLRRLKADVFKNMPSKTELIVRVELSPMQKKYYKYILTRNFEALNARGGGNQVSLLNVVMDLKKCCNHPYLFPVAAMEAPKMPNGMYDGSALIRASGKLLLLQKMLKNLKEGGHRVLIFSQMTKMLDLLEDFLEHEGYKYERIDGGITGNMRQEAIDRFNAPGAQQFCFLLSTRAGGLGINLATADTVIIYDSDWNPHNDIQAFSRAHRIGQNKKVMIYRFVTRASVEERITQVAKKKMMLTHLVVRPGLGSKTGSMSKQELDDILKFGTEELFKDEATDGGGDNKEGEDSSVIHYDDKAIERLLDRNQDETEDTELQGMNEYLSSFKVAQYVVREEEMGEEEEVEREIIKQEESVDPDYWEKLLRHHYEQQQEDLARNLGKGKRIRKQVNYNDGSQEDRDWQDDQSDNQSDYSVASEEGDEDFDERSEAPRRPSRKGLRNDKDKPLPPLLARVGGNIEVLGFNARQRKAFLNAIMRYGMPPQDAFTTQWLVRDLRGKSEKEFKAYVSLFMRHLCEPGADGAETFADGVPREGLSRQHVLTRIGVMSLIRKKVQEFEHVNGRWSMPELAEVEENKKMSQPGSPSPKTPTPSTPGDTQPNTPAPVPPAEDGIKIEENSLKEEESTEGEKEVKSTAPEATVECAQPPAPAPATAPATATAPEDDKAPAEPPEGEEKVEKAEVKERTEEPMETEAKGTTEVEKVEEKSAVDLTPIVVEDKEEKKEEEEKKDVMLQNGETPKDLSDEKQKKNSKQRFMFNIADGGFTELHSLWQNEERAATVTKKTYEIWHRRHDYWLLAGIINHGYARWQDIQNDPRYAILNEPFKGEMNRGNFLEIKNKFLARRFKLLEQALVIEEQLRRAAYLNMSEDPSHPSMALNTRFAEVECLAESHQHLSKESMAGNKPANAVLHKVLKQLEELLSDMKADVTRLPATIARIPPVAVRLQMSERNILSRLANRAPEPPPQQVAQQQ

Biological target: biotinylatable tagged SOX2 (bioSOX2), biotinylated in vivo by birA (mouse) (UniProt P48432)
Test: affinity purification with mass spectrometry; biotinylated SOX2 and associated proteins precipitated with streptavidin magnetic beads from nuclear protein extracts of E18.5 bioSOX2/birA mouse lungs; control mouse lungs as control

| binding | Molecule |
| --- | --- |
| binds | Forkhead box protein FOXP2, endogenous in mouse lung (from UniProt P58463 1-714) |
| binds | Chromodomain Helicase DNA binding protein 4 (CHD4), endogenous in mouse lung (from UniProt Q6PDQ2 1-1915) |
| binds | Forkhead box protein FOXP4, endogenous in mouse lung (protein, UniProt Q9DBY0 1-795) MMVESASETIRSAPSGQNGVGSLSAQADGGGGAGTAGTAPAAGRDASGREAASGGADSNGEMSPAELLHFQQQQALQVARQFLLQQASSLNSPGNNDSKQSASAVQVPVSVAMMSQQMLTPQQMQQILSPPQLQALLQQQQALMLQQLQEYYKKQQEQLHLQLLTQQQAGKQQPKEALGNKQLAFQQQLLQMQQLQQQHLLNLQRQGLVSLQPSQASGPLQALPQAVCPTDLPQLWKGEGAPGQPAEDSGRQEGLDLASTAVTATSFASPPKVSPPLSHHPLPNGQPTVLTSRRDSSSHEETPSSHPLYGHGECKWPGCETLCEDLGQFIKHLNTEHALDDRSTAQCRVQMQVVQQLEIQLAKESERLQAMMAHLHMRPSEPKPFSQPVTVSADPFPDGLVHPPTSAAAPVTPLRPPGLGSASLHSGGPARRRSNDKFCSPISSELAQNHEFYKNADVRPPFTYASLIRQAILETPDRQLTLNEIYNWFTRMFAYFRRNTATWKNAVRHNLSLHKCFVRVENVKGAVWTVDEREYQKRRPPKMTGSPTLVKNMISGLSYGALNASYQAALAESSFPLLSNPGMLNPGSASSLLPLSQEDLGVPGEPLPSNGSSSPPRLSPPQYSHQIQVKEEPAEAEEDRRPGPPLGAPNPSTVGPPEDRDLEEDLGGEDMPSQPCPLIPGWKPSLLHLSYCVKPKFTVSVGSKTPSSPLPPPPRVQGSYSLPPCSYLAYGDMRGQNPAPSPGLLSGVGGGLFRCLHRTKSPSLPGVWILAAELETMRFHRPPMGDPQPKTADWV |
